PubChem BioAssay AID1159544, Gurdon Institute – 2015
In all, the deposit lists 41 reagents; this is a random part of those with a known target gene and a result. In the full data, 13 (32%) got an active call. 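Values are raw well means without normalisation; calls set replicate averages against a luciferase siRNA control; from a single screening run.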 Repeated entries: replicate wells of the same siRNA.

Assay: 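How each human E2 shapes foci build-up and removal after double-strand breaks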 (primary screen)
Cell system: human U2OS osteosarcoma cells
Reagent: siRNA against human genes, about 60 nM siRNA
Timing: about 3 days from transfection to irradiation, then fixed 30 min to 24 h later
Challenge: ionising radiation, 2 Gy; fixed 30 min, 2 h, 8 h or 24 h later; untreated plates as reference
Read-out: 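FK2 staining of conjugated ubiquitin imaged confocally; automated foci detection within DAPI nuclear outlines gives an unnormalised well average of foci per cell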
Direction: FK2 foci per cell, 30 min post-IR: higher = more ubiquitin foci early after irradiation; FK2 foci per cell, unirradiated: higher = more ubiquitin foci without irradiation; FK2 foci per cell, 2 h post-IR: higher = more ubiquitin foci 2 h after irradiation; FK2 foci per cell, 24 h post-IR: higher = more ubiquitin foci persisting a day later
Active means: 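Called when the replicate mean of foci per cell 30 min after irradiation departs by more than 40% from the luciferase control siRNA mean, in either direction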

gene symbol | FK2 foci per cell, 30 min post-IR | FK2 foci per cell, unirradiated | FK2 foci per cell, 2 h post-IR | FK2 foci per cell, 24 h post-IR | activity call
UBE2D1 | 14 | 4.84 | 8.37 | 3.91 | inactive
UBE2D1 | 11.9 | 4.36 | 8.49 | 3.53 | inactive
UBE2B | 15.2 | 4.58 | 10.3 | 2.92 | inactive
UBE2B | 15 | 4.78 | 10 | 3.03 | inactive
UBE2E3 | 16.7 | 7.22 | 11 | 5.9 | inactive
UBE2E3 | 13.4 | 5.44 | 10.3 | 5.55 | inactive

Next part; the last 2 above are carried over.
gene symbol | FK2 foci per cell, 30 min post-IR | FK2 foci per cell, unirradiated | FK2 foci per cell, 2 h post-IR | FK2 foci per cell, 24 h post-IR | activity call
UBE2E3 | 16.7 | 7.22 | 11 | 5.9 | inactive
UBE2E3 | 13.4 | 5.44 | 10.3 | 5.55 | inactive
UBE2M | 12.5 | 4.99 | 8.12 | 3.92 | inactive
UBE2M | 13.1 | 4.67 | 8.15 | 3.96 | inactive
UBE2D2 | 3.38 | 1.6 | 2.57 | 2.66 | active
UBE2D2 | 3.08 | 1.87 | 2.45 | 3.01 | active
UBE2J1 | 3.17 | 2.17 | 3.57 | 0.957 | active
UBE2J1 | 6.99 | 1.96 | 2.75 | 1.45 | active
AKTIP | 13.9 | 4.88 | 8.68 | 3.26 | inactive
AKTIP | 12.7 | 4.66 | 8.66 | 3.36 | inactive
